Experimental findings from article doi:10.1101/2025.11.15.688598 are described below.

Chains of the proteins cited; added tags and fusions are not shown.
UniProt P40938: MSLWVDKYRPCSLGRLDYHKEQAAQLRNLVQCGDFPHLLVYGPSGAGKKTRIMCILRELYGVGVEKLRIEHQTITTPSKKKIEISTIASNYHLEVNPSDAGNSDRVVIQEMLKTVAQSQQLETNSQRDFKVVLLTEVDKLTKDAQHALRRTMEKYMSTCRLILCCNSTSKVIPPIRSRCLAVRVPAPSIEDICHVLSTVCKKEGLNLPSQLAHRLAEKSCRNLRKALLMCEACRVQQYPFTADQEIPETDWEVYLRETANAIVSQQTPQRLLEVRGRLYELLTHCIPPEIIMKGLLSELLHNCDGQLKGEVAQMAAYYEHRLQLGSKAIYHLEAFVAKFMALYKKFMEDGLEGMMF
UniProt P35250: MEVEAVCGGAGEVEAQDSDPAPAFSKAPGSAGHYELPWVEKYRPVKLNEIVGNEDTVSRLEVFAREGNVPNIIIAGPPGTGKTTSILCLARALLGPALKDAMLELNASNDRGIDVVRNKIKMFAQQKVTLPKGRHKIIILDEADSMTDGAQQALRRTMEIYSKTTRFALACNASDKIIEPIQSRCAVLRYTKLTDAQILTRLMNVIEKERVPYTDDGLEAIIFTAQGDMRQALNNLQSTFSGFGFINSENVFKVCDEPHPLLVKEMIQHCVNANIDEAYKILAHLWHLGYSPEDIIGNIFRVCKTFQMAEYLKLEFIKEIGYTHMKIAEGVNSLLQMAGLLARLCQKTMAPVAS
UniProt P40937: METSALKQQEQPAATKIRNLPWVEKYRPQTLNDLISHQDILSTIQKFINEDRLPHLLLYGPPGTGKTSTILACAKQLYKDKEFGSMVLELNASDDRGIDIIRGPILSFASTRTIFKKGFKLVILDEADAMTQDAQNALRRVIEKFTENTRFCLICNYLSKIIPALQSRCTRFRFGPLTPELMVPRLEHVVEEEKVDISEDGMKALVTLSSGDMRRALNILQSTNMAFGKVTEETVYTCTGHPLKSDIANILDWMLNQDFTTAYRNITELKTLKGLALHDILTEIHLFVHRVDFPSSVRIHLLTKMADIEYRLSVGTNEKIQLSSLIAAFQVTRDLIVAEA

No constants are given. Whether binding was seen depends on the method and setting. Some results given as binding are weak or reduced against the parent protein; the word gives no strength.

First the molecules themselves.
B1: N-terminus truncated RFC1 (ΔN-RFC1-Strep II) (domain or fragment, UniProt P35251 551-1148)
chain: KSLDFKEQVAEETSGDSKARNLADDSSENKVENLLWVDKYKPTSLKTIIGQQGDQSCANKLLRWLRNWQKSSSEDKKHAAKFGKFSGKDDGSSFKAALLSGPPGVGKTTTASLVCQELGYSYVELNASDTRSKSSLKAIVAESLNNTSIKGFYSNGAASSVSTKHALIMDEVDGMAGNEDRGGIQELIGLIKHTKIPIICMCNDRNHPKIRSLVHYCFDLRFQRPRVEQIKGAMMSIAFKEGLKIPPPAMNEIILGANQDIRQVLHNLSMWCARSKALTYDQAKADSHRAKKDIKMGPFDVARKVFAAGEETAHMSLVDKSDLFFHDYSIAPLFVQENYIHVKPVAAGGDMKKHLMLLSRAADSICDGDLVDSQIRSKQNWSLLPAQAIYASVLPGELMRGYMTQFPTFPSWLGKHSSTGKHDRIVQDLALHMSLRTYSSKRTVNMDYLSLLRDALVQPLTSQGVDGVQDVVALMDTYYLMKEDFENIMEISSWGGKPSPFSKLDPKVKAAFTRAYNKEAHLTPYSLQAIKASRHSTSPSLDSEYNEELNEDDSQSDEKDQDAIETDAMIKKKTKSSKPSKPEKDKEPRKGKGKSSKK

This experiment deals with Replication factor C subunit 3 (RFC3) with N-terminal 6xHis tag (human) (UniProt P40938). Description: co-purification.
Consider “Replication factor C subunit 2 (RFC2) (from UniProt P35250 1-354)”, for which the binding entry is “binds”. Take “Replication factor C subunit 5 (RFC5) (from UniProt P40937 1-340)”: the binding result is reported as “binds”.

For the molecule B1, the binding entry is reported as “binds”.
